The text below walks through data of paper PMC10605189.

Sequences of proteins named here, by UniProt entry; tags and fusion partners are left off.
UniProt P45973: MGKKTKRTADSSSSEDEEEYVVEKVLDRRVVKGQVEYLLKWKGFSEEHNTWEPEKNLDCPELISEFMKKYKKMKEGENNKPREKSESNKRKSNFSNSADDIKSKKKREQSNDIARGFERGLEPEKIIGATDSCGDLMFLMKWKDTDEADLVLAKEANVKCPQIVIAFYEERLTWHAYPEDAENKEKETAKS
UniProt Q06265: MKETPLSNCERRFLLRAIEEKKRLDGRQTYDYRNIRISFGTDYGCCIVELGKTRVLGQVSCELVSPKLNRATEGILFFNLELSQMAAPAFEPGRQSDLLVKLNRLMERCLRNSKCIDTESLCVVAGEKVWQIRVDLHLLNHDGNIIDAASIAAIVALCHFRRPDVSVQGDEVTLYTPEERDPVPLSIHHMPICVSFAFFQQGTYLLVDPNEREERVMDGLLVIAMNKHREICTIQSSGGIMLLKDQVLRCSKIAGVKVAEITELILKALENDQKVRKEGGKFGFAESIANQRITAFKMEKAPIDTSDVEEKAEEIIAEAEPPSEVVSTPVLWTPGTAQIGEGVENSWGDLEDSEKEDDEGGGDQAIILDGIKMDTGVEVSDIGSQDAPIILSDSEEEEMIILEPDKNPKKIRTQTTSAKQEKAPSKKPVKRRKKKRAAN

These are yes or no findings as the source states them, for the method shown. For some assays here: Binding seen in cells or lysates may run through a third protein. Some results given as binding are weak or reduced against the parent protein; the word gives no strength.

The target of test [1] is endogenous chromatin-bound HP1α of MCF10-2A cells (human (endogenous in MCF10-2A)) (UniProt P45973). Description: co-IP; chromatin-bound protein immunoprecipitation (CB/IP) with HP1α antibody and protein-A agarose; MCF10-2A cells synchronized by double thymidine block, collected in S/G2; lysis buffer with protease inhibitor and N-ethylmaleimide; Western blot. On the technique in general: A western blot detects proteins with antibodies after separation by electrophoresis.

Test [2] shares this target. Put plainly: condition: only cells synchronized in G1/S or S phase; co-IP; chromatin-bound protein immunoprecipitation (CB/IP) with HP1α antibody and protein-A agarose; MCF10-2A cells synchronized by double thymidine block, collected in G1/S and S; lysis buffer with protease inhibitor and N-ethylmaleimide; Western blot.
The target in test [3] is unmodified HP1α recombinant protein (heterochromatin protein 1 alpha) (UniProt P45973). Put plainly: pull-down; cell-free bait-prey study: recombinant HP1α (unmodified or SUMOylated in vitro) immunoprecipitated, immobilized on agarose beads and incubated with recombinant Exosc9; eluate analysed by SDS-PAGE and Western blot, densitometry with ImageJ; both purified.
Test [4] has as its target endogenous chromatin-bound HP1α of MCF10-2A cells (human (endogenous in MCF10-2A)) (UniProt P45973). Description: co-IP; chromatin-bound protein immunoprecipitation (CB/IP) with HP1α antibody and protein-A agarose; MCF10-2A cells synchronized by double thymidine block, collected in G1/S and S; lysis buffer with protease inhibitor and N-ethylmaleimide; Western blot.

Take “endogenous Exosc9 of MCF10-2A cells (from UniProt Q06265 1-439)”: the binding entry is on record as “binds” in test [1] and “no binding” in test [2].
For “recombinant Exosc9 protein (exosome component 9) (from UniProt Q06265 1-439)”, the binding entry in test [3] is on record as “binds”.

B1: endogenous SENP7L of MCF10-2A cells (deSUMOylase enzyme) (enzyme, UniProt Q9BQF6 1-1050)
chain: MDKRKLGRRPSSSEIITEGKRKKSSSDLSEIRKMLNAKPEDVHVQSPLSKFRSSERWTLPLQWERSLRNKVISLDHKNKKHIRGCPVTSKSSPERQLKVMLTNVLWTDLGRKFRKTLPRNDANLCDANKVQSDSLPSTSVDSLETCQKLEPLRQSLNLSERIPRVILTNVLGTELGRKYIRTPPVTEGSLSDTDNLQSEQLSSSSDGSLESYQNLNPHKSCYLSERGSQRSKTVDDNSAKQTAHNKEKRRKDDGISLLISDTQPEDLNSGSRGCDHLEQESRNKDVKYSDSKVELTLISRKTKRRLRNNLPDSQYCTSLDKSTEQTKKQEDDSTISTEFEKPSENYHQDPKLPEEITTKPTKSDFTKLSSLNSQELTLSNATKSASAGSTTETVENSNSIDIVGISSLVEKDENELNTIEKPILRGHNEGNQSLISAEPIVVSSDEEGPVEHKSSEILKLQSKQDRETTNENESTSESALLELPLITCESVQMSSELCPYNPVMENISSIMPSNEMDLQLDFIFTSVYIGKIKGASKGCVTITKKYIKIPFQVSLNEISLLVDTTHLKRFGLWKSKDDNHSKRSHAILFFWVSSDYLQEIQTQLEHSVLSQQSKSSEFIFLELHNPVSQREELKLKDIMTEISIISGELELSYPLSWVQAFPLFQNLSSKESSFIHYYCVSTCSFPAGVAVAEEMKLKSVSQPSNTDAAKPTYTFLQKQSSGCYSLSITSNPDEEWREVRHTGLVQKLIVYPPPPTKGGLGVTNEDLECLEEGEFLNDVIIDFYLKYLILEKASDELVERSHIFSSFFYKCLTRKENNLTEDNPNLSMAQRRHKRVRTWTRHINIFNKDYIFVPVNESSHWYLAVICFPWLEEAVYEDFPQTVSQQSQAQQSQNDNKTIDNDLRTTSTLSLSAEDSQSTESNMSVPKKMCKRPCILILDSLKAASVQNTVQNLREYLEVEWEVKLKTHRQFSKTNMVDLCPKVPKQDNSSDCGVYLLQYVESFFKDPIVNFELPIHLEKWFPRHVIKTKREDIRELILKLHLQQQKGSSS
With B1, the binding entry in test [1] is given as “no binding (condition: cells synchronized in S/G2)”; in test [4], “binds”.
